Counter-ions that a name gives are not always drawn. Some of the results follow. Many values rest on one well or one pass, so single values are uncertain.
Test system: Drosophila melanogaster DPAGT1 (Alg7) RNAi eye model
Experiment: eye size Z-score vs DMSO-treated DPAGT1 model flies; higher = larger eye (suppression of DPAGT1 phenotype)
Conditions: 5 uM

In the case of `Nc1c2c(nc3ccccc13)CCCC2` [Tacrine hydrochloride], the “eye size Z-score” value is reported as -0.1.

`CN1CC(O)C2=C/C(=N/NC(N)=O)C(=O)C=C21` (configuration not stated) [Carbazochrome] was tested, and the “eye size Z-score” value was 0.64.

With `CCN(CC)CCOC(=O)c1ccc(N)cc1` [Procaine hydrochloride] the “eye size Z-score” value was 0.89.

`CC[C@H](C)C(=O)O[C@H]1C[C@@H](C)C=C2C=C[C@H](C)[C@H](CC[C@@H]3C[C@@H](O)CC(=O)O3)[C@H]21` [Lovastatin] was tested, and the “eye size Z-score” value was -0.21.

With `Cc1c(C)c2c(c(C)c1O)CCC(C)(C(=O)O)O2` (configuration not stated) [Trolox] the “eye size Z-score” value was 0.82.

`CC(=O)N[C@@H](CS)C(=O)O` [Acetylcysteine] was tested, and the “eye size Z-score” value was -0.13.

For `CC(=O)O[C@H]1C[C@@]2(C)[C@@H](C[C@@H](O)[C@H]3[C@@]4(C)CC[C@@H](O)[C@@H](C)[C@@H]4CC[C@@]32C)/C1=C(\CCC=C(C)C)C(=O)O` [Fusidic acid sodium salt], the “eye size Z-score” value was -0.28.

With `CN(C)CCn1nnnc1SCC1=C(C(=O)O)N2C(=O)[C@@H](NC(=O)Cc3csc(N)n3)[C@H]2SC1` [Cefotiam hydrochloride] the “eye size Z-score” value was -0.15.

For `CNC[C@H](O)[C@@H](O)[C@H](O)[C@H](O)CO` [Meglumine], the “eye size Z-score” value was 0.16.

For `NCCCC(O)(P(=O)(O)O)P(=O)(O)O` [Alendronate sodium], the “eye size Z-score” value was -1.2.

In the case of `NC(=O)OCC(COC(N)=O)c1ccccc1` [Felbamate], the “eye size Z-score” value is reported as 0.09.

With `Cc1ccnc(NS(=O)(=O)c2ccc(N)cc2)n1` [Sulfamerazine] the “eye size Z-score” value was 0.66.

`N=C(N)NCc1cccc(I)c1` [Iobenguane sulfate] was tested, and the “eye size Z-score” value was -0.15.

With `CC(C)n1c(/C=C/C(O)CC(O)CC(=O)O)c(-c2ccc(F)cc2)c2ccccc21` (configuration not stated) [Fluvastatin sodium salt] the “eye size Z-score” value was -0.7.

`CC(C)(C)c1ccc(C(=O)CCCN2CCC(OC(c3ccccc3)c3ccccc3)CC2)cc1` [Ebastine] was tested, and the “eye size Z-score” value was 0.37.

For `CCCCNc1cc(C(=O)O)cc(S(N)(=O)=O)c1Oc1ccccc1` [Bumetanide], the “eye size Z-score” value was 2.04.

With `CNC(=O)c1c(I)c(C(=O)NCC(=O)Nc2c(I)c(C(=O)O)c(I)c(C(=O)NCCO)c2I)c(I)c(N(C)C(C)=O)c1I` [Ioxaglic acid] the “eye size Z-score” value was 0.32.

`CCOC(=O)[C@H](CCc1ccccc1)N[C@@H](C)C(=O)N(CC(=O)O)C1Cc2ccccc2C1` [Delapril Hydrochloride] was tested, and the “eye size Z-score” value (female) was -0.99.

In the case of `CC(=O)Oc1ccccc1C(=O)Oc1ccccc1C(=O)O` [Acetylsalicylsalicylic acid], the “eye size Z-score” value is reported as 0.57.

`Cn1cc(C(=O)[C@@H]2CCc3[nH]cnc3C2)c2ccccc21` [Ramosetron hydrochloride] was tested, and the “eye size Z-score” value was 0.64.

For `CC(C)NC[C@H](O)COc1cccc2ccccc12` [(S)-(-)-Propranolol hydrochloride], the “eye size Z-score” value was 1.04.

`CC(=O)CCCCn1c(=O)c2c(ncn2C)n(C)c1=O` [Pentoxifylline] was tested, and the “eye size Z-score” value was 0.24.

In the case of `CN1C(=O)OC(C)(C)C1=O` [Trimethadione], the “eye size Z-score” value is reported as 0.02.

`CN(C/C=C/c1ccccc1)Cc1cccc2ccccc12` [Naftifine hydrochloride] was tested, and the “eye size Z-score” value was -0.18.

For `OCCN1CCN(CCCN2c3ccccc3C=Cc3ccccc32)CC1` [Opipramol dihydrochloride], the “eye size Z-score” value was -1.05.

In the case of `Nc1c(CC(=O)O)cccc1C(=O)c1ccc(Br)cc1` [Bromfenac], the “eye size Z-score” value is reported as -1.59.

With `CCCC(CCC)C(=O)O[C@H]1C[C@H]2CC[C@@H](C1)[N+]2(C)C` [Anisotropine Methylbromide] the “eye size Z-score” value was 1.68.

`CN(C)CCCSC(=N)N` [Dimaprit dihydrochloride] was tested, and the “eye size Z-score” value was 0.81.

With `C[C@H](Cc1cc2c(c(C(N)=O)c1)N(CCCO)CC2)NCCOc1ccccc1OCC(F)(F)F` [Silodosin] the “eye size Z-score” value was 0.41.

`Cc1onc(-c2c(F)cccc2Cl)c1C(=O)N[C@@H]1C(=O)N2[C@@H]1SC(C)(C)[C@@H]2C(=O)O` [Flucloxacillin sodium] was tested, and the “eye size Z-score” value was -0.73.

With `O=C(NCCN1CCOCC1)c1ccc(Cl)cc1` [Moclobemide] the “eye size Z-score” value was -2.09.

In the case of `NS(=O)(=O)c1cc(Cl)c(Cl)c(S(N)(=O)=O)c1` [Dichlorphenamide], the “eye size Z-score” value is reported as -0.16.

For `CCCCCNC(=N)N/N=C/c1c[nH]c2ccc(OC)cc12` [Tegaserod maleate], the “eye size Z-score” value was 0.24.

With `CCN1CCCC(OC(=O)C(c2ccccc2)c2ccccc2)C1` (configuration not stated) [Piperidolate hydrochloride] the “eye size Z-score” value was -0.71.

With `C[C@@H]1C[C@H]2[C@@H]3C[C@H](F)C4=CC(=O)C=C[C@]4(C)[C@@]3(Cl)[C@@H](O)C[C@]2(C)[C@H]1C(=O)COC(=O)C(C)(C)C` [Clocortolone pivalate] the “eye size Z-score” value was -0.42.

`OC(c1cc(C(F)(F)F)nc2c(C(F)(F)F)cccc12)C1CCCCN1` (configuration not stated) [Mefloquine hydrochloride] was tested, and the “eye size Z-score” value was 1.32.

`CNCCCC12CCC(c3ccccc31)c1ccccc12` [Maprotiline hydrochloride] was tested, and the “eye size Z-score” value was 0.03.

`C[C@]12C=CC(=O)C=C1CC[C@H]1[C@@H]3C[C@@H](O)[C@](O)(C(=O)CO)[C@@]3(C)C[C@H](O)[C@@]12F` [Triamcinolone] was tested, and the “eye size Z-score” value was 0.03.

For `CC1(C)O[C@@H]2C[C@H]3[C@@H]4CCC5=CC(=O)CC[C@]5(C)[C@@]4(F)[C@@H](O)C[C@]3(C)[C@]2(C(=O)CCl)O1` [Halcinonide], the “eye size Z-score” value was -0.2.

With `CCN(CC)C(=O)/C(C#N)=C/c1cc(O)c(O)c([N+](=O)[O-])c1` [Entacapone] the “eye size Z-score” value was -0.51.

`C[C@@H](O)[C@H]1C(=O)N2C(C(=O)O)=C(S[C@@H]3CN[C@H](C(=O)N(C)C)C3)[C@H](C)[C@H]12` [Meropenem] was tested, and the “eye size Z-score” value was 0.79.

For `CC(=O)O[C@H]1C[C@@H]2CC[C@@H]3[C@H](CC[C@@]4(C)[C@H]3C[C@H]([N+]3(C)CCCCC3)[C@@H]4OC(C)=O)[C@@]2(C)C[C@@H]1N1CCCCC1` [Vecuronium bromide], the “eye size Z-score” value was 0.48.

`NC(=O)c1cnccn1` [Pyrazinamide] was tested, and the “eye size Z-score” value was -1.22.

In the case of `O=C(CCNNC(=O)c1ccncc1)NCc1ccccc1` [Nialamide], the “eye size Z-score” value is reported as 0.16.

In the case of `N/C(=N\C(=O)c1nc(Cl)c(N)nc1N)NCc1ccccc1` [Benzamil hydrochloride], the “eye size Z-score” value is reported as 1.44.

With `N#C/C(=C1/SCC(c2ccccc2Cl)S1)n1ccnc1` (configuration not stated) [Lanoconazole] the “eye size Z-score” value was -1.15.

`Cc1nc2ccccn2c(=O)c1CCN1CCC(C(=O)c2ccc(F)cc2)CC1` [Pirenperone] was tested, and the “eye size Z-score” value (female) was 0.01.

Source: the supplement of paper PMC11542785
